Drawing on publication PMC12733451, “A Novel RANKL/RANK Inhibitor IMB-R38 Inhibits Osteoporosis Through Regulating Bone Metabolism” (International Journal of Molecular Sciences, 2025), this text covers binding for one substance.

Sequences of proteins named here, by UniProt entry; tags and fusion partners are left off. Residues count along the entry.
UniProt O35235, residues 143-316: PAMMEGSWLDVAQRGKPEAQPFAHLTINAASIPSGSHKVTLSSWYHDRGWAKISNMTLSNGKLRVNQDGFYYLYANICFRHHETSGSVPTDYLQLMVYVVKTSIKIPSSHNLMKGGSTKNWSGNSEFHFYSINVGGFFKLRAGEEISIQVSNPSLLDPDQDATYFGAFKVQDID

Changes are numbered by the printed parent chain. These are yes or no findings as the source states them, for the method shown. Some entries that bind do so weakly or less than the wild type. Where a sequence is shown, tags or fusion partners need not be part of it.

Holding throughout (experiment): two-hybrid; GAL4 system in yeast AH109; AD (pGADT7) and BD (pGBKT7) fusions; growth on SD/-Trp/-Leu/-His/-Ade quadruple-dropout plates or medium, 30 °C, 3-4 days
For assay [1], the target named is T1, RANK (amino acids 26-211) Asp168 + Lys169 > Ala fused to the GAL4 DNA-binding domain (pBD-RANK-Asp168 + Lys169 > Ala) (UniProt O35305).
T1 sequence: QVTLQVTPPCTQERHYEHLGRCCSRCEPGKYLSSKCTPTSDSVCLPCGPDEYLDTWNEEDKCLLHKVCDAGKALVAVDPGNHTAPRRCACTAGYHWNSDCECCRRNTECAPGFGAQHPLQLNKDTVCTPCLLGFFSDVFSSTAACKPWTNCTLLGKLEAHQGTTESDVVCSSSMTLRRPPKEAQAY

The target in assay [2] is T2, RANK (amino acids 26-211) Asp168 > Ala fused to the GAL4 DNA-binding domain (pBD-RANK-Asp168 > Ala) (UniProt O35305).
T2 sequence: T1 sequence with A144K

In assay [3] the target is T3, RANK (amino acids 26-211) Lys169 > Ala fused to the GAL4 DNA-binding domain (pBD-RANK-Lys169 > Ala) (UniProt O35305).
T3 sequence: T1 sequence with A143D

In the case of “RANKL (amino acids 143-317) fused to the GAL4 transcription activation domain (pAD-RANKL) (from UniProt O35235 143-316) (domain or fragment)”, the results for the binding result in assay [1], in assay [2] and in assay [3] were “no binding”, “no binding” and “binds”, respectively.
